PubChem BioAssay AID1259308, NCATS, 2017
The deposit covers about 59,000 reagents; shown is a random part of them. About 1,510 of all reagents (2.6%) were called active. 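Calls use total luciferase alone and ignore viability, so some active siRNAs may act by altering cell number.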 Reagents against one gene are numbered here.

Purpose: 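Candidate targets for better recombinant protein yield in mammalian cells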 (primary screen)
Cells: human HEK293 embryonic kidney cells stably expressing firefly luciferase (HEK-CMV-Luc2-Hygro)
Knock-down reagent: single siRNA against human genes, 0.8 pmol siRNA per well
Duration: 72 h
Read-out: 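Luciferase light (ONE-Glo) measured on one replicate plate set and viability (CellTiter-Glo) on the other, scaled to a negative control siRNA, with robust z-scores and luciferase per cell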
Reading the numbers: total luciferase, z-score and total luciferase, % of control: higher = more reporter protein produced; luciferase per cell, z-score: higher = more reporter output per viable cell; viable cells, % of control: higher = more viable cells
Active means: 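An siRNA counts as active if its total luciferase robust z-score exceeds 3; genes with two or more such siRNAs out of three were retested with fresh siRNAs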
Calls: active = raised luciferase; inactive = no rise

Target gene	reagent no.	total luciferase, z-score	total luciferase, % of control	luciferase per cell, z-score	viable cells, % of control	Outcome
STUM (GeneID 375057)	1	-0.825	65.5	-0.674	87.4	inactive
STUM (GeneID 375057)	2	-0.109	79.7	0.629	75.5	inactive
STUM (GeneID 375057)	3	0.108	84	-0.379	104	inactive
KAT8 (GeneID 84148)	1	-0.204	77.8	-0.0594	88.3	inactive
KAT8 (GeneID 84148)	2	-0.738	67.2	-0.789	92.5	inactive
KAT8 (GeneID 84148)	3	-0.391	74.1	-0.453	93.3	inactive
IKBKE (GeneID 9641)	1	1.89	120	1.84	82.2	inactive
IKBKE (GeneID 9641)	2	-0.421	73.5	-0.16	85.7	inactive
IKBKE (GeneID 9641)	3	-1.68	48.6	-1.79	87	inactive
MEIS2 (GeneID 4212)	1	0.325	88.3	0.851	78.9	inactive
MEIS2 (GeneID 4212)	2	-0.107	79.8	-0.281	96	inactive
MEIS2 (GeneID 4212)	3	-0.0414	81.1	-0.0977	92.9	inactive
SS18L1 (GeneID 26039)	1	-0.679	68.4	-0.236	81.3	inactive
SS18L1 (GeneID 26039)	2	-0.36	74.7	-0.16	87.1	inactive
SS18L1 (GeneID 26039)	3	5.8	197	4.37	69.6	active
RETSAT (GeneID 54884)	1	1.82	118	0.882	105	inactive
RETSAT (GeneID 54884)	2	-0.886	64.3	-1.08	95.5	inactive
RETSAT (GeneID 54884)	3	-0.0349	81.2	1.03	69.1	inactive
SNAP29 (GeneID 9342)	1	-0.988	62.2	-0.658	82.7	inactive
SNAP29 (GeneID 9342)	2	-1.24	57.2	-0.858	80.2	inactive
SNAP29 (GeneID 9342)	3	0.902	99.8	1.06	84.4	inactive
KBTBD8 (GeneID 84541)	1	0.0466	82.8	-0.277	99.5	inactive
KBTBD8 (GeneID 84541)	2	1.49	112	2.68	61.5	inactive
KBTBD8 (GeneID 84541)	3	-1.66	49	-2.04	93.5	inactive
PDE6D (GeneID 5147)	1	2.58	133	3.06	66.5	inactive
PDE6D (GeneID 5147)	2	0.287	87.6	-0.132	101	inactive
PDE6D (GeneID 5147)	3	0.981	101	2.17	64	inactive
NXNL1 (GeneID 115861)	1	-0.68	68.4	0.285	70.9	inactive
NXNL1 (GeneID 115861)	2	5.76	196	3.98	77	active
NXNL1 (GeneID 115861)	3	0.56	93	0.579	89.2	inactive
CAB39L (GeneID 81617)	1	1.38	109	0.857	97.4	inactive
CAB39L (GeneID 81617)	2	-1.54	51.2	-1.95	95.6	inactive
CAB39L (GeneID 81617)	3	1.6	114	2.56	64.7	inactive
GSG1L2 (GeneID 644070)	1	-0.418	73.6	-0.739	99.9	inactive
GSG1L2 (GeneID 644070)	2	-0.21	77.7	-0.363	95.6	inactive
GSG1L2 (GeneID 644070)	3	0.00826	82.1	-0.823	114	inactive

Called active, of those listed so far:
Target gene	reagent no.	total luciferase, z-score	total luciferase, % of control	luciferase per cell, z-score	viable cells, % of control	Outcome
SS18L1 (GeneID 26039)	3	5.8	197	4.37	69.6	active
NXNL1 (GeneID 115861)	2	5.76	196	3.98	77	active

Continued.
Target gene	reagent no.	total luciferase, z-score	total luciferase, % of control	luciferase per cell, z-score	viable cells, % of control	Outcome
TAP1 (GeneID 6890)	1	-0.922	63.6	-1.38	102	inactive
TAP1 (GeneID 6890)	2	0.331	88.5	-0.206	104	inactive
TAP1 (GeneID 6890)	3	-1.43	53.5	-1.57	90.5	inactive
FABP12 (GeneID 646486)	1	0.563	93.1	1.53	69.5	inactive
FABP12 (GeneID 646486)	2	-0.21	77.7	-0.242	92.6	inactive
FABP12 (GeneID 646486)	3	-1.02	61.6	-0.649	81.7	inactive
FGD5 (GeneID 152273)	1	-1.1	60	-0.682	80.2	inactive
FGD5 (GeneID 152273)	2	-0.242	77.1	0.405	77.4	inactive
FGD5 (GeneID 152273)	3	0.97	101	1.36	79	inactive
PSMF1 (GeneID 9491)	1	0.288	87.6	0.179	93.4	inactive
PSMF1 (GeneID 9491)	2	-0.463	72.7	-0.674	97	inactive
PSMF1 (GeneID 9491)	3	-0.688	68.2	-0.543	87.9	inactive
ZNF37BP (GeneID 100129482)	1	-1.4	54	-1.14	81.5	inactive
ZNF37BP (GeneID 100129482)	2	0.0901	83.7	-0.293	101	inactive
ZNF37BP (GeneID 100129482)	3	0.396	89.8	0.303	92.6	inactive
CEP68 (GeneID 23177)	1	0.726	96.3	0.163	103	inactive
CEP68 (GeneID 23177)	2	0.414	90.1	0.103	98	inactive
CEP68 (GeneID 23177)	3	-0.632	69.3	-1.19	106	inactive
PPIG (GeneID 9360)	1	1.46	111	1.16	91.2	inactive
PPIG (GeneID 9360)	2	-0.355	74.8	-0.392	92.7	inactive
PPIG (GeneID 9360)	3	0.0391	82.7	-0.332	101	inactive
